Measurements: patent publication US7586008B2, “Propofol analogs, process for their preparation, and methods of use” (Abraxis Bioscience, Inc., priority 2003, dated 2009)
Values joined by “and” are separate entries in the source; they are usually repeats but may differ in a detail not shown here. Identical values can stand only once. At least one read-out could not be matched to a standard name with certainty.

Tested on: rats
Assay: In vivo hypnotic/anesthetic activity, time to recovery of righting reflex
Design: species or system rat
Conditions: tail vein injection in DMSO, 28 μmol/kg (5 mg/kg for propofol)
Procedure: To determine the binding constant (KD) of propofol and its analogs for GABAA Cl channel, binding was determined as in Example 25 in presence of increasing concentration of propofol and the KD determined graphically using the Hill plots. In vivo hypnotic activity was determined as follows. Drugs solubilized in DMSO were administered to rats by tail vein injection (N=5 rats per group). A dose level of 28 μmol/kg (5 mg/kg for propofol) was used to compensate for differences in molecular weight of the analogs. Anesthetic activity in vivo was determined as time to recovery of righting reflex following administration of the compounds.
Dose escalation experiment was performed in rat in order to compare the toxicity and the pharmacodynamic of CT8 against propofol. Drugs solubilized in DMSO were administered to rats (5 rats per group). Anesthetic activity in vivo was determined as time to recovery of righting reflex. Mortality was also monitored and the LD50 curves for propofol and CT8 constructed. In order to adjust for the differences in molecular weight between the two compounds, μmol/kg dose was used.

**Q.** How did the “Anesthesia Activity (Time to awakening, min)” value turn out when `CC(C)c1cc(C(=O)c2ccc(C(F)(F)F)cc2)cc(C(C)C)c1O` [CT8, (4-(trifluoromethyl)phenyl)-(4-hydroxy-3,5-diisopropylphenyl)methanone] was run?
**A.** 75-92 min and 92.5 ± 5.0, N = 4 min

**Q.** How did the “Anesthesia Activity (Time to awakening, min)” value turn out when `CC(C)c1cc(C(=O)c2ccc(I)cc2)cc(C(C)C)c1O` [CY155, (4-hydroxy-3,5-diisopropylphenyl)-(4-iodophenyl)methanone] was run?
**A.** 86 min and 86.1 ± 22.1, N = 5 min
